According to patent publication US9296710B2, “Bicyclo (3.1.0) hexane-2, 6-dicarboxylic acid derivatives as mGlu2 receptor agonist” (Eli Lilly and Company, priority 2011, dated 2016):

Biological target: T1, PepT1 (Homo sapiens, UniProt P46059)
T1 construct: expressed in transfected cells; host or cells: HeLa cells (ATCC), transient transfection with FUGENE6
T1 sequence (P46059 1-708): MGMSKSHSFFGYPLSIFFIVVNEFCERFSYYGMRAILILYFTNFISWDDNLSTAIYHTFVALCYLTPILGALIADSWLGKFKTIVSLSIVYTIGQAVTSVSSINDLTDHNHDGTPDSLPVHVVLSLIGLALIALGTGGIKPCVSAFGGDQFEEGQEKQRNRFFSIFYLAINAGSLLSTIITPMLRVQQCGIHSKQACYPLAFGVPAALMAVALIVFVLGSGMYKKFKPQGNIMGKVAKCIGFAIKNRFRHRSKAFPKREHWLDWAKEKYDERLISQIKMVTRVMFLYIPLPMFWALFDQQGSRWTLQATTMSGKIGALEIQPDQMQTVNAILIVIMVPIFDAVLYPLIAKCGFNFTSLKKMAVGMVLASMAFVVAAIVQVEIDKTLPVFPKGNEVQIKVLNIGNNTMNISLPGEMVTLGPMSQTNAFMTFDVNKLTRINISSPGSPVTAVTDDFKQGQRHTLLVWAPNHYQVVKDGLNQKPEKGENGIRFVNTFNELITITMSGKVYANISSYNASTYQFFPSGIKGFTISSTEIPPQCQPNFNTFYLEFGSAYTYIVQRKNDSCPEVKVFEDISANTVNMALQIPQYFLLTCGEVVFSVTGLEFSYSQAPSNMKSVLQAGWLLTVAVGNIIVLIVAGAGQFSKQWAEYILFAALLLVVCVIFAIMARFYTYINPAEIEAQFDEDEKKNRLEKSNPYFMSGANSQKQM
Experiment: In Vitro PepT1 GlySar Inhibition Screen
Type: cell-based
Settings: negative and positive controls run in parallel, n=18-19
Protocol: PepT1 assays are established to examine the ability of the amino acid prodrug compounds to interact with the intestinal absorption transporter PepT1.
HeLa cells, derived from human cancer cells, (American Type Culture Collection) are grown in Hyclone Medium (Invitrogen, Cat# SH30243) containing 10% fetal bovine serum (FBS), 0.1 mM non essential amino acids (NEAA), and 100 units/mL penicillin with 100 μg/mL streptomycin at 37° C. in a 5% CO2 humidified atmosphere. The cell line is used for up to 40 passages and then discarded. Frozen cells in 1 mL vials are thawed in water bath for 1-2 minutes and added to 5 mL of cell medium at 37° C. Each of the T-flasks is provided with 8.5 mL of the fresh medium and 1.5 mL of the cell stock. Cells are passaged twice during a week. […] Cells are incubated at 37° C., until ready for the uptake study. […]
Inhibition of PEPT1-mediated [glycyl-1-2-^14C]Glyclysarcosine (GlySar) uptake activity is measured in the cells cultured in the 24-well plates 24-hours post transfection as previously published (Zhang et al. 2004. J. Pharm. Exper Ther. 310:437-445). […] A 200 μL aliquot is removed and radioactivity is determined by liquid scintillation counting to measure the [^14C]Gly-Sar present in each of the incubation wells. A no inhibitor control is established and the percent inhibition of each prodrug is calculated with respect to this control.

## CC1=C(C(=O)O)N2C(=O)[C@@H](NC(=O)[C@H](N)c3ccccc3)[C@H]2SC1 [Cephalexin, reference compound]
  GlySar uptake inhibition, mean values ± standard deviation (controls): 37.5±14.7%
